Reference: PMC9698582
These are yes or no findings as the source states them, for the method shown. In cells and extracts the contact can be indirect. Some entries that bind do so weakly or less than the wild type. Sequences can lack the tags named with a protein.

Amino acid sequences for entries named in this document (tags omitted).
UniProt P78527: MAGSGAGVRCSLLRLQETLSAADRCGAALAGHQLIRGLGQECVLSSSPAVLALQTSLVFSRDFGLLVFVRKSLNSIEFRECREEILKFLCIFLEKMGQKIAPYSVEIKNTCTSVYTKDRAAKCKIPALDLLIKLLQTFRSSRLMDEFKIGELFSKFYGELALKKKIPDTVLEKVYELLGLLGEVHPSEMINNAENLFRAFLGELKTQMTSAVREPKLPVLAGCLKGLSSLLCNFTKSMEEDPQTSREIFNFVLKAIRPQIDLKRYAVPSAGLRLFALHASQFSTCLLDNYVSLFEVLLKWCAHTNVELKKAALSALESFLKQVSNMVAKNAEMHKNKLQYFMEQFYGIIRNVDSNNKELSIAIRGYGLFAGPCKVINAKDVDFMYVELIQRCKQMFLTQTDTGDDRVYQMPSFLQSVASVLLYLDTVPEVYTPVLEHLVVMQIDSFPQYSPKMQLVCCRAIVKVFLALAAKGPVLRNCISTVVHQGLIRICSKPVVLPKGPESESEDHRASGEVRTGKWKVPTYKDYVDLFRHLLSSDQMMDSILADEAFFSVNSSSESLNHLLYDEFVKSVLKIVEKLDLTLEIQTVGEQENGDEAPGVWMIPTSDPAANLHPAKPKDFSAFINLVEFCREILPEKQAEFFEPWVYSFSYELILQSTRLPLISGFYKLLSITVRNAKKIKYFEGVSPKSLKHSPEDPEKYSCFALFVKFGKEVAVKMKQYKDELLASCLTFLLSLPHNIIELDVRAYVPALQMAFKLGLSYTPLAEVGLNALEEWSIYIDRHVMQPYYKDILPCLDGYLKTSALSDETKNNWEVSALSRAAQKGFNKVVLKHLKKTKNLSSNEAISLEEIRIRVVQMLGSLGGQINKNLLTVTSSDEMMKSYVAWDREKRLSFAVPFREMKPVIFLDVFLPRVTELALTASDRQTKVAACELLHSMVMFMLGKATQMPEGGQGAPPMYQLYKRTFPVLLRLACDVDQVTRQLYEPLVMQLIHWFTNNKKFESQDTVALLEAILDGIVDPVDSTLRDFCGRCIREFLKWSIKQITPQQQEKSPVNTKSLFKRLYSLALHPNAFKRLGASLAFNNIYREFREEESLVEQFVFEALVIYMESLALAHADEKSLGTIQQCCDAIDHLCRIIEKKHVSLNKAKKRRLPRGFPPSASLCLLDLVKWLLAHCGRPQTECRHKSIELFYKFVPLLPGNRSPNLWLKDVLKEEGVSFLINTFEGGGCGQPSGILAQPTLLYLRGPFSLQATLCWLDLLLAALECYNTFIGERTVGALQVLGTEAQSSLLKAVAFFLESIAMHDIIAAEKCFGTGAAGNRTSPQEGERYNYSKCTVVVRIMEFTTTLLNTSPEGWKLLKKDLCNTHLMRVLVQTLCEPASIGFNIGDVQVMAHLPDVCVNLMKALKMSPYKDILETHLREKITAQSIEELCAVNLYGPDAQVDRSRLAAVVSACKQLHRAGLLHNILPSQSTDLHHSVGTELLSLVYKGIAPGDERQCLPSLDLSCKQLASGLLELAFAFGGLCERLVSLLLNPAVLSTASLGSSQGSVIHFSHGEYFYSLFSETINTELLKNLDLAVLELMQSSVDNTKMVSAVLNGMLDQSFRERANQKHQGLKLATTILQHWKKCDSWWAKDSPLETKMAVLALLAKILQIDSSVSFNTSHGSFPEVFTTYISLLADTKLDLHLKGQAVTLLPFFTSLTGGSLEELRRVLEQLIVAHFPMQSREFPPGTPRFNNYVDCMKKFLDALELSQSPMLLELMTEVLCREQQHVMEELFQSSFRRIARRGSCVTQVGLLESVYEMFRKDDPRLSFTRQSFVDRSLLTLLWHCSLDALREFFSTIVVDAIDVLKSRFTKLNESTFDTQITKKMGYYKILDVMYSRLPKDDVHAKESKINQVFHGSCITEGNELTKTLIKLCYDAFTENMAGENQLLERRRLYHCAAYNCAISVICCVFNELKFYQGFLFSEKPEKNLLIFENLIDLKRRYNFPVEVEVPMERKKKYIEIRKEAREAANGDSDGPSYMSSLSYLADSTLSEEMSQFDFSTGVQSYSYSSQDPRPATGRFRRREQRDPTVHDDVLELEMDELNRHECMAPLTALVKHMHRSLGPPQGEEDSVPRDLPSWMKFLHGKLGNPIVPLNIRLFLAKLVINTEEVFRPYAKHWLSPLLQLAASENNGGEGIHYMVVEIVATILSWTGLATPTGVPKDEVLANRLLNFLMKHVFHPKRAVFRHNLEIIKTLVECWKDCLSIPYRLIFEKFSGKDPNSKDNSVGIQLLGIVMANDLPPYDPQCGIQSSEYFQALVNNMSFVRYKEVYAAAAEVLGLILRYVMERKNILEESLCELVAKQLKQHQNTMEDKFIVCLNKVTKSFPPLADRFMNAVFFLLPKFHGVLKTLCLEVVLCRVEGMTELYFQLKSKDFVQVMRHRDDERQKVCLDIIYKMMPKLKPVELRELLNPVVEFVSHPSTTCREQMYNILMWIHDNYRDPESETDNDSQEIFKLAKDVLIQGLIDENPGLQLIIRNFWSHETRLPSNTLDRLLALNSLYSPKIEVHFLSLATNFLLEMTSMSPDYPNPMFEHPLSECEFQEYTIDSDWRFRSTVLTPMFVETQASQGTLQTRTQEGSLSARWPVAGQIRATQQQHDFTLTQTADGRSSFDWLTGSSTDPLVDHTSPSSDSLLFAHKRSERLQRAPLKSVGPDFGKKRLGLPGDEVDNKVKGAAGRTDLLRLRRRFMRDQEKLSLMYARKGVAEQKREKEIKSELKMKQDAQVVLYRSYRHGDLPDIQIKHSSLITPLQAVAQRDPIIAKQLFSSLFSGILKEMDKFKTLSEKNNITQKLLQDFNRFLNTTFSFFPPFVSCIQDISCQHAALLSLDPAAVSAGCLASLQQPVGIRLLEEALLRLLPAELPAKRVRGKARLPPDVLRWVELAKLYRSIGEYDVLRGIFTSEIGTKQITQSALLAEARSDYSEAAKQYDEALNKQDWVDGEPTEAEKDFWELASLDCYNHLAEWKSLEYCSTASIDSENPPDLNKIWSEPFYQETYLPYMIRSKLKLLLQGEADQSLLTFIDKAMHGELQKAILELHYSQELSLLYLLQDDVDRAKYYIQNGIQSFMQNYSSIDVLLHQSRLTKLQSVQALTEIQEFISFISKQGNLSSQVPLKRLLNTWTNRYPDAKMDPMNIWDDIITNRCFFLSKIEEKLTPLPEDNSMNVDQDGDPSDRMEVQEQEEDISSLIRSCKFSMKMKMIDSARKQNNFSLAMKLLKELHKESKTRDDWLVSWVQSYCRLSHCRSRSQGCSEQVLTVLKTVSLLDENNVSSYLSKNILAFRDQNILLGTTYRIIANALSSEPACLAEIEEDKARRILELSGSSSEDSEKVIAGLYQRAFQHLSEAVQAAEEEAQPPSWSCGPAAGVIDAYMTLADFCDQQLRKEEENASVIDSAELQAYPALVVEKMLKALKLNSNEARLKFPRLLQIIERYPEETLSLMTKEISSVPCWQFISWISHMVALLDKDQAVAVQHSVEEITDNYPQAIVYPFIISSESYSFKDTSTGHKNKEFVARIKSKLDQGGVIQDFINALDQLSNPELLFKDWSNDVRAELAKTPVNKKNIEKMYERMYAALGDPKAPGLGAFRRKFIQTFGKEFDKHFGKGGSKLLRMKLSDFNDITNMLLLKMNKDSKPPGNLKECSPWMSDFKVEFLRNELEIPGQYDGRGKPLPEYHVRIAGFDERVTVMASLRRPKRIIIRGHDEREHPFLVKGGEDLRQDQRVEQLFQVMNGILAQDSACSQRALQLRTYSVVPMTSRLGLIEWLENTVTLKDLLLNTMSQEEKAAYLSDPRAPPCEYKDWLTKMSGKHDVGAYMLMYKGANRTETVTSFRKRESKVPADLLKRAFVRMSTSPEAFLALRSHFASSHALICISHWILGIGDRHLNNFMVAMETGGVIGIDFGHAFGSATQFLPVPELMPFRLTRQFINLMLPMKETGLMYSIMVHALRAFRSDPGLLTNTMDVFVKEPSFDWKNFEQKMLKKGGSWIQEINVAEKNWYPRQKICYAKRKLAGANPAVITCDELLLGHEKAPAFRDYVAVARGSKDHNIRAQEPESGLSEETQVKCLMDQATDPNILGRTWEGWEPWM

Target: T1, GPR37L1 tagged with turbo green fluorescence protein (GFP) (human) (UniProt O60883)
T1 sequence: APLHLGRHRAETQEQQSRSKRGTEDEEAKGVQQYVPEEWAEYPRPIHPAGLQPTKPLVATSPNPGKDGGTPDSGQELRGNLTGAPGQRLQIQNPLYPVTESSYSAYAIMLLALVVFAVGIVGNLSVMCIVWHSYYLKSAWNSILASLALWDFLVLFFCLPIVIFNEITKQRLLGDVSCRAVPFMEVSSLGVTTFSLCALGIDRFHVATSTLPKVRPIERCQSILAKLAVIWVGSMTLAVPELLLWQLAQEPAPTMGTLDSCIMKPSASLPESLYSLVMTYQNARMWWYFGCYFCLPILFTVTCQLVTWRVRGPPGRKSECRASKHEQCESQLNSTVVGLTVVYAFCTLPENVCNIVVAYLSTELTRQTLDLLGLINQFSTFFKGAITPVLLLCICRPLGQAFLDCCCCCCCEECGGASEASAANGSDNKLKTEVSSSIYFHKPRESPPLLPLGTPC
Assay: co-IP; glycerol gradient fractions 10-14 from hRPTCs expressing GPR37L1-GFP or mock-transfected; Co-IP with GFP antibody or control rabbit IgG; immunoblot for GPR37L1-GFP, DNMT1, mTOR, PRKDC

binding: binds
Substance: DNA-dependent protein kinase catalytic subunit (from UniProt P78527 1-4128) (enzyme)
